Laboratory results published in PubChem BioAssay AID2685 (National Center for Advancing Translational Sciences (NCATS), 2010).
The other results are listed elsewhere or left out. These are further read-outs of the screen, such as a control signal, another cell line or another target. No call is given for them. Compounds called inactive in the main read-out are mostly missing here. Words in brackets tell the shape of the fitted curve; partial curves, single points and poor fits give uncertain potencies.

Test: qHTS Assay for Lipid Storage Modulators in Drosophila S3 Cells;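 on cell number change: cells counted by Cell Tracker Red CMTPX staining in the red channel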
Conditions: BODIPY lipid droplet fluorescence, 18-24 h; for cell number change: measured here: cell count max response, cells fed with added oleic acid
Method in brief: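 Drosophila S3 cells got compounds at several concentrations plus oleic acid (400 uM solution). Laser-scanning cytometry with 488 nm excitation read lipid droplets at 500-530 nm and cells at 575-640 nm. Percent activity was relative to 20 uM Triacsin C.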

[1] = measured here: lipid fluorescence (Fed channel) AC50, cells fed with added oleic acid
[2] = measured here: cell number channel AC50, cells fed with added oleic acid

Row | Structure (SMILES) | cell number change [%] | AC50 [1] | AC50 [2]
1 | Cc1cc(NC(=O)CCC(=O)N(CC(=O)NC2CCCC2)c2ccc(Cl)cc2)no1 | 11.5 | 29.1 µM [rising, single point] | 
2 | O=C(c1ccc(COc2ccccc2Cl)o1)N1CCCC1 | 30.2 |  | 5.8 µM [rising, single point]
3 | O=C(O)c1ccc(Cl)c(N2C(=O)Nc3ccccc3N2O)c1 | -31.9 | 2.59 µM [falling, full curve] | 4.11 µM [falling, full curve, poor fit]
4 | O=C(NCCc1ccccc1)C(=O)NCC1OCCN1S(=O)(=O)c1ccc(F)cc1 (stereo not drawn) | 13 | 4.11 µM [rising, full curve] | 
5 | NC(=O)c1c(NC(=O)COC(=O)CSc2nnc(-c3ccc(Cl)cc3)o2)sc2c1CCC2 | 23.1 | 16.4 µM [rising, partial curve] | 
6 | Cc1cnc(C(=O)OC(C)C(=O)Nc2ccc(Oc3ccccc3)cc2)cn1 (stereo not drawn) | 1.04 | 14.6 µM [falling, partial curve] | 
7 | COc1ccccc1N1CCN(CC(=O)NCCc2ccc(S(N)(=O)=O)cc2)CC1 | 16.5 |  | 
8 | C/C(=N\NC(=O)c1ccc(OC2OCCOC2Oc2ccc(C(=O)N/N=C(\C)c3ccncc3)cc2)cc1)c1ccncc1 (stereo not drawn) | -0.905 |  | 0.082 µM [falling, full curve, poor fit]
9 | Cc1ccc(-c2noc(CSc3nnc(CCc4ccccc4)n3-c3ccccc3)n2)cc1 | 21.8 |  | 
10 | O=C(Nc1ncc(Cc2cc(Cl)ccc2Cl)s1)c1ccc([N+](=O)[O-])cc1 | 2.3 | 0.58 µM [falling, single point] | 
11 | CC(C)OC(=O)c1c(NC(=O)C2CC=CCC2C(=O)O)sc2c1CCCCC2 (stereo not drawn) | -15.7 |  | 
12 | CN(CC(=O)NC1CCCCCC1)S(=O)(=O)c1cnc[nH]1 | 1.55 | 4.11 µM [falling, partial curve, poor fit] | 
13 | COc1ccc(N2CCN(C(=O)c3ccc4c(c3)CC(c3ccccc3)OC4=O)CC2)cc1 (stereo not drawn) | -27.1 | 29.1 µM [falling, single point] | 
14 | CC1CCCCC1NC(=O)CN1CCN(S(=O)(=O)c2ccc(Br)s2)CC1 (stereo not drawn) | 8 | 6.51 µM [falling, single point] | 
15 | Cc1nc(NCc2ccccc2)sc1C(=O)Nc1ccccc1 | 21.2 | 29.1 µM [falling, single point] | 
16 | COc1ccc(C(=O)COC(=O)C(C)N2C(=O)C3C4CCC(C4)C3C2=O)cc1 (stereo not drawn) | -9.52 |  | 
17 | CCN(CC)S(=O)(=O)c1ccc(N2CCOCC2)c(NC(=O)c2ccc(=O)n(C)n2)c1 | 15.1 | 1.46 µM [rising, partial curve] | 2.31 µM [rising, single point]
18 | CCCCN1C(=O)C(=O)N(CC(=O)Nc2ccccc2C(=O)OCC)C1=O | -2.55 | 35.5 µM [falling, partial curve, poor fit] | 

Row | Structure (SMILES) | cell number change [%] | AC50 [1] | AC50 [2]
19 | CCN(Cc1ccccc1)C(=O)COc1cc(=O)n(CC)c2ccccc12 | 89.8 | 2.59 µM [rising, full curve] | 2.91 µM [rising, full curve]
20 | COc1ccc(NC(=O)CN(c2c(C)cccc2C)S(C)(=O)=O)cc1 | -22.8 | 2.06 µM [rising, full curve] | 0.0651 µM [falling, full curve, poor fit]
21 | C/C(=N\NC(=O)C1CCCN(S(=O)(=O)c2ccccc2)C1)c1ccccn1 (stereo not drawn) | 16.2 | 0.291 µM [rising, partial curve, poor fit] | 0.517 µM [rising, full curve]
22 | Cc1nn(-c2ccccc2)c(C)c1C(=O)OC(C)C(=O)NC1CCCCC1C (stereo not drawn) | -16.1 |  | 
23 | CN=C(Nc1ccc(C(=O)OC)cc1)SC1CC(=O)N(c2ccccc2F)C1=O (stereo not drawn) | 29.8 | 18.4 µM [rising, single point] | 4.61 µM [rising, full curve, poor fit]
24 | O=C1CC(C(=O)Nc2cccc(F)c2)n2c(nc3ccccc32)N1 (stereo not drawn) | -1.21 | 2.06 µM [rising, single point] | 
25 | Cc1nn(C(C)C)c(C)c1[C@@H]1C[C@H]2CN(Cc3cccc(Cl)c3)C(=O)[C@]23CCCN13 | -7.48 | 0.651 µM [falling, full curve, poor fit] | 
26 | COc1cccc(C(=O)OCCNC(=O)c2cccnc2)c1 | 13.3 |  | 
27 | Cc1ccc(S(=O)(=O)N2CCCC(NC(=O)N3CCN(c4ccccc4)CC3)C2)cc1 (stereo not drawn) | 13.5 | 8.2 µM [rising, partial curve] | 
28 | CCCCCN(C(=O)CCC(=O)OCC(=O)N1CCCCC1)c1c(N)n(CCCC)c(=O)[nH]c1=O | 23 | 0.282 µM [rising, full curve, poor fit] | 
29 | Cc1c(C)n(Cc2ccccc2)c2ncnc(NCCCN(C)C)c12 | -15.5 |  | 0.92 µM [falling, full curve, poor fit]
30 | Cc1ccc(S(=O)(=O)N2CCCC2)cc1C(=O)NC1CCCCC1 | -22.1 | 29.1 µM [falling, single point] | 
31 | CC(C)c1ccc(C(=O)NCCCc2ccccc2)cc1 |  |  | 6.51 µM [rising, single point]
32 | CC(C)c1ccc(S(=O)(=O)N2CCN(C(=O)c3cccc(F)c3)CC2)cc1 |  | 0.58 µM [falling, single point] | 
33 | CCN(C(=O)COC(=O)c1ccc(S(=O)(=O)N2CCCc3ccccc32)cc1)C1CCS(=O)(=O)C1 (stereo not drawn) | 32.9 |  | 18.4 µM [rising, single point]
34 | CNS(=O)(=O)c1cccc(C(=O)OCC(=O)Nc2ccccc2F)c1 | 17.5 | 6.51 µM [rising, single point] | 3.66 µM [rising, single point]
35 | CCc1ccc(-n2c(=O)c3ccccc3n(CC(=O)C(C)(C)C)c2=O)cc1 | 12.9 | 6.51 µM [rising, single point] | 0.0731 µM [rising, full curve, poor fit]
36 | COc1ccc(C2CC(=O)C(C=NCCN3CCN(C(=S)Nc4ccccc4)CC3)=C(O)C2)cc1OC (stereo not drawn) | 38.1 | 29.1 µM [rising, single point] | 29.1 µM [rising, single point]

Reformatted: 9 of the compounds above.
Row	Structure (SMILES)	cell number change [%]	AC50 [1]	AC50 [2]
11	CC(C)OC(=O)c1c(NC(=O)C2CC=CCC2C(=O)O)sc2c1CCCCC2 (stereo not drawn)	-15.7		
12	CN(CC(=O)NC1CCCCCC1)S(=O)(=O)c1cnc[nH]1	1.55	4.11 µM [falling, partial curve, poor fit]	
13	COc1ccc(N2CCN(C(=O)c3ccc4c(c3)CC(c3ccccc3)OC4=O)CC2)cc1 (stereo not drawn)	-27.1	29.1 µM [falling, single point]	
14	CC1CCCCC1NC(=O)CN1CCN(S(=O)(=O)c2ccc(Br)s2)CC1 (stereo not drawn)	8	6.51 µM [falling, single point]	
15	Cc1nc(NCc2ccccc2)sc1C(=O)Nc1ccccc1	21.2	29.1 µM [falling, single point]	
16	COc1ccc(C(=O)COC(=O)C(C)N2C(=O)C3C4CCC(C4)C3C2=O)cc1 (stereo not drawn)	-9.52		
17	CCN(CC)S(=O)(=O)c1ccc(N2CCOCC2)c(NC(=O)c2ccc(=O)n(C)n2)c1	15.1	1.46 µM [rising, partial curve]	2.31 µM [rising, single point]
18	CCCCN1C(=O)C(=O)N(CC(=O)Nc2ccccc2C(=O)OCC)C1=O	-2.55	35.5 µM [falling, partial curve, poor fit]	
19	CCN(Cc1ccccc1)C(=O)COc1cc(=O)n(CC)c2ccccc12	89.8	2.59 µM [rising, full curve]	2.91 µM [rising, full curve]
